These are yes or no findings as the source states them, for the method shown. Binding can be weak; no strength is given.
Biological target: Cynomolgus monkey GCGR (cynomolgus monkey)
Assay: cell ELISA on fixed CHO cells overexpressing GCGR

binding	Binder
binds	ch1822 (antibody, human IgG4 S228P, kappa, F234A L235A, V domains shown) VH: EVRLVESGGDFVQPGRSVKLSCAASGFTFSNYYMAWVRQAPTKGLEWVGSISTGGVNTYYRDSVKGRFTISRDNAESTLYLQMDSLRSEETATYYCARHTTPDYHYGIYFAMDAWGQGTSVTVSS VL: QVTLTQPKSVSGSLRSTITIPCERSSGDIGESYVNWYQQHLGRPPINVIYADDQRPSEVSDRFSGSIDSSSNSASLTITNLQVDDEADYFCQSYDSSIDIFFGGGTKLTVLR
binds	ch1808 (antibody, human IgG4 S228P, kappa, F234A L235A, V domains shown) VH: QVQLQQSGAELARPGASVKLSCKASGDTFTTNGISWVKQRIGQGLEWIGEIYPRSGNTYYNENFKGKATLTADKSSTTAYMELRRLTSEDSAVYFCARSITSVIGADYFDYWGQGTTLTVSS VL: DIQMTQTTSSLSASLGDRVTISCRASQDISNYLNWYQKKPDGTVKLLIYYSSTLHSGVPSRFSGSGSGTDYSLTISNLEQEDIATYFCQQGNTFPWTFGGGTKLEIKR

The remaining lines, values behind:

Binder	binding
ch1810 (antibody, human IgG4 S228P, kappa, F234A L235A, V domains shown) VH: QVQLQQSGTELARPGTSVTLSCKASGYTFTNYAISWVKQRTGQGLEWIGEIYPTSGNTYYNEKFKGKATLTADRSSKTMYMELRSLTSVDSAVYFCASGVITTVVSTDYFDYWGQGSPLTVSS VL: DIQMTQIPSSLSVSLGDRVTISCRASLDISNYLNWYQLKPDGTVKLLIYYTSTLHSGVSSRFSGSGSGTEYSLTISNLEQEDIATYFCQQGNMVPYTFGGGTKLEIKR	binds
ch1817 (antibody, human IgG4 S228P, kappa, F234A L235A, V domains shown) VH: EVQLVESGGDLVQPGRSMKLSCAASGFTFSNYYMAWVRQAPTKGLEWVASISTGGVNTYYRDSVKGRFTISRDNAKNNLYLQMDSLRSEETATYYCARHTTADYFYGIYFALDAWGQGTSVTVSS VL: QFTLTQPKSVSGSLRSTITIPCERSSGDIGDSYVNWYQQHLGRPPLNVIYADVQRPSEVSDRFSGSIDSSSNSASLTITNLQMDDEADYFCQSYDTNIDIIFGGGTKLTVLR	binds
ch1803 (antibody, human IgG4 S228P, kappa, F234A L235A, V domains shown) VH: QFQLHQSGAELVKPGASVKLSCKATGYTFTDYWIEWVKQRPGHGLEWIGEILPGSTYTNYNEKFKGRATFTAEPSSSSAYMQLSGLTTEDSAIYYCSRGLSTLMAVDYFDYWGQGTTLTVSS VL: DIQMTQTTSSLSASLGDRVTINCRASQDISNYLNWYQQKPDGTVKLLIYYSSTLHSGVPSRFSGSGSGTDYSLTISHLEQEDIATYFCQQTNIFPWTFGGGTKLEIRT	binds
ch1805 (antibody, human IgG4 S228P, kappa, F234A L235A, V domains shown) VH: EVQLQQSGPELVKPGASVKIPCKTSGYTFTDYNMDWVKQSHGRSLEWIGSIDPDNGGTIYNQKFKGKATLTVDKSSSTAYMELRSLTSEDTAVYYCTRDYYGSSSWFAYWGQGTLVTVSA VL: DVVMTQSPATLSVTPGDRVSLSCRASQSISDYLHWYQQKSHESPRLLIKYASQSISGIPSRFSGSGSGSDFTLSINSVEPEDVGVYYCQNGHSFPYTFGGGTKLEIKR	binds

— patent US20220153853A1
